Out of some 330,000 compounds screened, about 7,700 (2.3%) were called active. The inconclusive results got no clear call from the source; some entries with a clear call stand among them for comparison. Calls follow the shape of the dose curve; as a rule, active = well fitted inhibition curve with a large enough effect; inconclusive = small, poorly fitted or top-dose-only effect, or effect the other way; inactive = flat fitted curve, though single readings scatter. A potency beside an inconclusive call is a rough fit, not a confirmed value.
Test: qHTS screen for small molecules that inhibit ELG1-dependent DNA repair in human embryonic kidney (HEK293T) cells expressing luciferase-tagged ELG1; also: nearly all actives have a fitted effect of over 55% in size
Settings: HEK293T ELG1-luciferase reporter, luminescence, 16 h, DNA damage induced by 5-fluorouridine; activity change, negative = inhibition: at 46.1 µM (top of the series)
Summary of the method: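 Reporter activity after DNA damage by 5-fluorouridine is monitored. Compound-treated cells incubate 16 hr at 37 °C, then ONE-Glo is added for 30 min before luminescence reading.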
With `Cc1onc(-c2c(Cl)cccc2Cl)c1/C(N)=N/OC(=O)N(C)C` the Potency was inconclusive: 5.8 µM [activator, partial curve, poor fit].
In the case of `CCCCNC(=S)N1CCn2cccc2C1c1cccnc1` (stereo not given), the Potency is reported as inconclusive: 29.1 µM [inhibitor, single point].
For `COc1ccc(CCn2c(O)c(/C=N/N3CCOCC3)c(=O)[nH]c2=O)cc1OC`, the Potency was active: 18.3 µM.
With `Cc1ccc(O)c(C(=O)c2cc(C(=O)NCc3ccccc3)c(=O)n(Cc3ccccc3)c2)c1` the Potency was inconclusive: 7.31 µM [inhibitor, partial curve].
For `CN1C2CCC1CC(OC(=O)c1cc(Cl)cc(Cl)c1)C2` (stereo not given), the “activity change, negative = inhibition” value was inactive: 17.4%.
In the case of `Cc1ccc(OCCn2cccc2/C=C2/C(=O)NC(=O)N(Cc3ccco3)C2=O)cc1`, the Potency is reported as inconclusive: 20.6 µM [activator, single point].
In the case of `Cc1cc(C(=O)Nc2ccccc2)nn1C(C)(C)C`, the Potency is reported as inconclusive: 5.8 µM [activator, partial curve].
For `CSc1cccc(CNC(=O)C2CCC(=O)N(Cc3cccc(C(F)(F)F)c3)C2)c1` (stereo not given), the Potency was inconclusive: 18.3 µM [activator, partial curve].
For `CC1(C)CSC(=NCc2ccccc2)N1`, the Potency was inconclusive: 20.6 µM [activator, single point].
In the case of `Cc1ccc(-n2sc3ccccc3c2=O)cc1`, the Potency is reported as inconclusive: 20.6 µM [activator, partial curve].
In the case of `COC(=O)[C@@H]1[C@@H](C(=O)OC)C2(c3ccccc3-c3ccccc32)N(c2ccc(Cl)cc2)N1C#N`, the Potency is reported as inconclusive: 29.1 µM [inhibitor, single point].
For `Cc1nnc2n1-c1ccc(Br)cc1C(c1ccccc1Cl)=NC2`, the Potency was inconclusive: 23.1 µM [activator, partial curve].
For `On1ccccc1=S`, the Potency was inconclusive: 1.26 µM [inhibitor, full curve, poor fit].
For `CC(C)COP(=O)(OCC(C)C)C(Nc1ccccc1)c1ccccc1` (stereo not given), the Potency was inconclusive: 32.6 µM [inhibitor, partial curve, poor fit].
For `COCCOC(=O)c1c(N)n(Cc2ccccc2)c2nc3ccccc3nc12`, the Potency was active: 18.4 µM.
For `C=CCN1C(=O)/C(=C\c2ccc(N3CCOCC3)o2)C(=O)NC1=S`, the Potency was inconclusive: 20.6 µM [activator, single point].
For `O=C(CN1CCCCC1)c1ccccc1Cl`, the Potency was inconclusive: 29.1 µM [activator, single point].
With `CCOC(=O)c1c(N)n(Cc2ccccc2)c2nc3ccccc3nc12` the Potency was inconclusive: 0.164 µM [inhibitor, full curve, poor fit].
With `COC(=O)C1=C(c2ccc(F)cc2OCc2ccccc2)C[C@@H]2CC[C@H]1N2C(=O)NCc1ccc(Br)cc1` the Potency was inconclusive: 23.1 µM [inhibitor, single point].
For `C[C@H]1CN([C@@H](C)CO)C(=O)c2cc(NC(=O)C3CCCCC3)ccc2O[C@H]1CN(C)Cc1ccc(-c2ccccc2)cc1`, the Potency was active: 10.3 µM.
In the case of `C[n+]1c(-c2ccccc2)cc(CCCCc2cc(-c3ccccc3)[n+](C)c(-c3ccccc3)c2)cc1-c1ccccc1`, the Potency is reported as inconclusive: 20.6 µM [inhibitor, single point].
With `CCCCN=C[C@]12CCC(O)CC1(O)CCC1[C@@H]2CC[C@]2(C)[C@H](C3C=CC(=O)O3)CCC12O` (stereo not given in full) the Potency was active: 1.03 µM.
For `Cc1cc(O)c2c(c1)C(=O)C13C(=C2O)C(=O)[C@H]2[C@@H](O)[C@@H]1[C@H]1[C@H](O)[C@@H]3C(=O)C3=C(O)c4c(O)cc(C)cc4C(=O)C312` (stereo not given in full), the Potency was inconclusive: 14.6 µM [inhibitor, single point].
In the case of `Nc1ccc(Cl)cc1C(=O)c1ccccc1`, the Potency is reported as inconclusive: 29.1 µM [activator, single point].
With `CCC(C)N1C(=O)/C(=C\c2ccc(N3CCCCCC3)cc2)C(=O)NC1=S` (stereo not given) the Potency was inconclusive: 29.1 µM [activator, single point].
With `O=[N+]([O-])c1ccc(N2CCCC2)c2ccncc12` the Potency was inconclusive: 29.1 µM [inhibitor, single point].
For `COC(=O)Cn1cc(/C=C2\C(=O)NC(=O)N(c3ccc(OC)cc3)C2=O)c2ccccc21`, the Potency was inconclusive: 23.1 µM [activator, partial curve, poor fit].
For `COc1ccc(Cl)cc1N=Cc1c(O)n(C)c(=O)n(C)c1=O`, the Potency was inconclusive: 29.1 µM [activator, partial curve, poor fit].
With `O=C(c1cc(-c2cccc(Cl)c2)on1)N1CCOCC1` the Potency was inconclusive: 10.3 µM [activator, partial curve].
With `Cc1nc2c(C(=O)N3CCC4(CC3)OCCO4)cnn2c(C)c1Cc1cccc(Cl)c1` the “activity change, negative = inhibition” value was inactive: 0.308%.
For `N#CSCC(=O)N1c2ccccc2CCc2ccccc21`, the Potency was inconclusive: 29.1 µM [inhibitor, single point].
With `Nc1cc2nc3ccccc3nc2cc1N` the Potency was inconclusive: 29.1 µM [activator, single point].
In the case of `CCOC(=O)C(O)(c1ccc(NC(=O)NC2CCCCC2)cc1)C(F)(F)F` (stereo not given), the Potency is reported as inconclusive: 10.3 µM [activator, partial curve].
For `CCN(CC)C(=O)c1ccc(NC(=O)c2ccc(N3CCCC3=O)cc2)cc1`, the “activity change, negative = inhibition” value was inactive: 16.8%.
With `CCOc1cc2c(cc1OCC)-n1cccc1C(c1ccc(C(C)C)cc1)NC2` (stereo not given) the Potency was inconclusive: 7.3 µM [inhibitor, partial curve, poor fit].
For `C=CCNC(=O)c1c(N)n(Cc2ccco2)c2nc3ccccc3nc12`, the Potency was inconclusive: 20.6 µM [inhibitor, partial curve].
With `COc1cccc(OCC(=O)N2CCN(C)CC2)c1` the Potency was inconclusive: 18.4 µM [activator, single point].
For `Cc1cccc(CN2CCN(C(=O)Cc3ccccc3)CC2)c1`, the “activity change, negative = inhibition” value was inactive: -8.93%.
In the case of `Cn1c(O)c(C=NCCc2c[nH]c3ccccc23)c(=O)n(C)c1=O`, the Potency is reported as inconclusive: 0.0461 µM [inhibitor, partial curve, poor fit].
For `CCC1C=CC=CC[C@H](C)[C@@H](O)[C@](C)(O)C(=O)[C@@H](C)[C@H](O)[C@@H](C)C(=O)[C@H](C)[C@@H](O)[C@H](C)C=CC(=O)OC2[C@@H](C)C(CC1)OC1(CC[C@@H](C)C(C[C@H](C)O)O1)[C@@H]2C` (stereo not given in full), the Potency was active: 11.6 µM.

From PubChem BioAssay AID504467 (National Center for Advancing Translational Sciences (NCATS), 2011)
% is scaled to controls: 0 for no effect and ±100 for the full control effect; potency is read from the fitted curve at half-maximal effect.
